According to the supplement of paper PMC4604168 (melanoma cell lines):
This is one part of the list. Many values rest on one well or one pass, so single values are uncertain.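 The apoptosis fraction was the count of cleaved-PARP antibody-stained nuclei relative to all DNA-stained nuclei, imaged in 1,536-well plates. Screening doses were set so most cells survived, and baseline and induced cleaved-PARP levels vary greatly across cell lines.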

Tested on: WM3619
Assay: cleaved PARP positive nuclei fraction relative to DMSO control; melanoma cells; higher = more apoptosis
Conditions: library dose: low library concentration; 72 h

| Structure (SMILES) | cleaved PARP positive nuclei fraction [%] |
| --- | --- |
| C=C(c1ccc(C(=O)O)cc1)c1cc2c(cc1C)C(C)(C)CCC2(C)C [Bexarotene] + CC(C)(C)c1cnc(CSc2cnc(NC(=O)C3CCNCC3)s2)o1 [SNS-032] (first compound 2 µM, partner dose 0.01 µM) | 90.6 |
| Cc1cc(Nc2cc(N3CCN(C)CC3)nc(/C=C/c3ccccc3)n2)n[nH]1 + COc1cc(N2CCC(N3CCN(C)CC3)CC2)ccc1Nc1ncc(Cl)c(Nc2ccccc2S(=O)(=O)C(C)C)n1 [NVP-TAE684] (first compound 0.04 µM, partner dose 0.08 µM) | 97.8 |
| O=C(O)c1ccc2c(c1)nc(Nc1cccc(Cl)c1)c1ccncc12 + Oc1nc(-c2ccc(C(F)(F)F)cc2)nc2c1CSCC2 [XAV939] (first compound 0.4 µM, partner dose 2 µM) | 85.2 |
| Nc1ccn([C@@H]2O[C@H](CO)[C@@H](O)C2(F)F)c(=O)n1 [gemcitabine] + COC(=O)c1sccc1S(=O)(=O)Nc1ccc(Nc2ccccc2)cc1OC [GSK0660] (first compound 0.0004 µM, partner dose 1 µM) | 143 |
| CNC(=O)c1cc(Oc2ccc(NC(=O)Nc3ccc(Cl)c(C(F)(F)F)c3)cc2)ccn1 [sorafenib] + CC(C)(C)c1cnc(CSc2cnc(NC(=O)C3CCNCC3)s2)o1 [SNS-032] (first compound 0.4 µM, partner dose 0.01 µM) | 115 |
| Nc1ccn([C@@H]2O[C@H](CO)[C@@H](O)C2(F)F)c(=O)n1 [gemcitabine] + OCCn1cc(-c2cnc3nnn(Cc4ccc5ncccc5c4)c3n2)cn1 [PF04217903] (first compound 0.0004 µM, partner dose 1 µM) | 144 |
| C=C(c1ccc(C(=O)O)cc1)c1cc2c(cc1C)C(C)(C)CCC2(C)C [Bexarotene] + Cc1ccc(NC(=O)c2cccc(N(C)C)c2)cc1NC(=O)c1ccc(O)cc1 [ZM336372] (first compound 2 µM, partner dose 2 µM) | 112 |
| Nc1nc(F)nc2c1ncn2[C@@H]1O[C@H](CO)[C@@H](O)[C@@H]1O [fludarabine] + C=CCn1c(=O)c2cnc(Nc3ccc(N4CCN(C)CC4)cc3)nc2n1-c1cccc(C(C)(C)O)n1 [MK1775] (first compound 0.2 µM, partner dose 0.02 µM) | 120 |
| Cc1cc(Nc2cc(N3CCN(C)CC3)nc(/C=C/c3ccccc3)n2)n[nH]1 + Cn1cc(/C=C2\C(=O)Nc3cccnc32)c2ccccc21 [GW441756] (first compound 0.04 µM, partner dose 0.4 µM) | 170 |
| CC(C)C[C@H](NC(=O)[C@H](Cc1ccccc1)NC(=O)c1cnccn1)B(O)O [Bortezomib] + c1cc(-c2cnn3cc(-c4ccc(OCCN5CCCCC5)cc4)cnc23)ccn1 [Dorsomorphin] (first compound 0.001 µM, partner dose 0.4 µM) | 592 |
| Nc1ncn([C@H]2C[C@H](O)[C@@H](CO)O2)c(=O)n1 [decitabine] + Cc1cc([N+](=O)[O-])ccc1NS(=O)(=O)c1cc(Cl)ccc1Cl [FH535] (first compound 0.1 µM, partner dose 1 µM) | 125 |
| Nc1ncn([C@H]2C[C@H](O)[C@@H](CO)O2)c(=O)n1 [decitabine] + O=C(Nc1cccc(Cl)c1)Nc1ncc(CCNc2ncnc3ccsc23)s1 [SNS314] (first compound 0.1 µM, partner dose 0.0008 µM) | 106 |
| CS(=O)(=O)CCNCc1ccc(-c2ccc3ncnc(Nc4ccc(OCc5cccc(F)c5)c(Cl)c4)c3c2)o1 [lapatinib] + COc1ccc2c(c1)CCC1C2CCC2(C)C(NCCCCCCN3C(=O)C=CC3=O)CCC12 [U73122] (first compound 0.8 µM, partner dose 0.4 µM) | 108 |
| Cc1cc(Nc2cc(N3CCN(C)CC3)nc(/C=C/c3ccccc3)n2)n[nH]1 + CCCCCCCCCCCC1=C(O)C(=O)C=C(O)C1=O [Embelin] (first compound 0.04 µM, partner dose 1.2 µM) | 105 |
| C[C@@H](Oc1cc(-c2cnn(C3CCNCC3)c2)cnc1N)c1c(Cl)ccc(F)c1Cl [Crizotinib] + Cc1cc([N+](=O)[O-])ccc1NS(=O)(=O)c1cc(Cl)ccc1Cl [FH535] (first compound 0.2 µM, partner dose 1 µM) | 86.7 |
| Nc1ccn([C@@H]2O[C@H](CO)[C@@H](O)C2(F)F)c(=O)n1 [gemcitabine] + O=C(Nc1cccc(Cl)c1)Nc1ncc(CCNc2ncnc3ccsc23)s1 [SNS314] (first compound 0.0004 µM, partner dose 0.0008 µM) | 115 |

Quoted at random: 2 entries already listed, in no set order.

| Structure (SMILES) | cleaved PARP positive nuclei fraction [%] |
| --- | --- |
| CC(C)C[C@H](NC(=O)[C@H](Cc1ccccc1)NC(=O)c1cnccn1)B(O)O [Bortezomib] + c1cc(-c2cnn3cc(-c4ccc(OCCN5CCCCC5)cc4)cnc23)ccn1 [Dorsomorphin] (first compound 0.001 µM, partner dose 0.4 µM) | 592 |
| Nc1ncn([C@H]2C[C@H](O)[C@@H](CO)O2)c(=O)n1 [decitabine] + O=C(Nc1cccc(Cl)c1)Nc1ncc(CCNc2ncnc3ccsc23)s1 [SNS314] (first compound 0.1 µM, partner dose 0.0008 µM) | 106 |

Additional records.

| Structure (SMILES) | cleaved PARP positive nuclei fraction [%] |
| --- | --- |
| O=C(O)[C@@H]1[O][Sb](=[O])([O][Sb]2(=[O])[O][C@H]([C@H](O)CO)[C@H](O)[C@H](C(=O)O)[O]2)[O][C@H]([C@H](O)CO)[C@@H]1O (stereo partly specified) [stibogluconate] + CC(C)CCN1c2nc(Nc3cc(F)c(O)c(F)c3)ncc2N(C)C(=O)C1C [BID1870] (first compound 2 µM, partner dose 0.2 µM) | 88.7 |
| C=C(c1ccc(C(=O)O)cc1)c1cc2c(cc1C)C(C)(C)CCC2(C)C [Bexarotene] + COc1ccc2c(c1)CCC1C2CCC2(C)C(NCCCCCCN3C(=O)C=CC3=O)CCC12 [U73122] (first compound 2 µM, partner dose 0.4 µM) | 91.3 |
| C=C(c1ccc(C(=O)O)cc1)c1cc2c(cc1C)C(C)(C)CCC2(C)C [Bexarotene] + Oc1nc(-c2ccc(C(F)(F)F)cc2)nc2c1CSCC2 [XAV939] (first compound 2 µM, partner dose 2 µM) | 93.2 |
| CS(=O)(=O)CCNCc1ccc(-c2ccc3ncnc(Nc4ccc(OCc5cccc(F)c5)c(Cl)c4)c3c2)o1 [lapatinib] + NC(=O)Nc1cc(-c2cccc(F)c2)sc1C(=O)N[C@H]1CCCNC1 [AZD7762] (first compound 0.8 µM, partner dose 0.02 µM) | 244 |
| O=C(O)[C@@H]1[O][Sb](=[O])([O][Sb]2(=[O])[O][C@H]([C@H](O)CO)[C@H](O)[C@H](C(=O)O)[O]2)[O][C@H]([C@H](O)CO)[C@@H]1O (stereo partly specified) [stibogluconate] + CN(NC(=O)CC(=O)NN(C)C(=S)c1ccccc1)C(=S)c1ccccc1 [STA4783] (first compound 2 µM, partner dose 0.006 µM) | 169 |
| CCCS(=O)(=O)Nc1ccc(F)c(C(=O)c2c[nH]c3ncc(Cl)cc23)c1F + COc1ccc(COc2ccc(Cc3cnc(N)nc3N)cc2OC)cc1 [GW2580] (first compound 0.08 µM, partner dose 1 µM) | 107 |
| Nc1ncn([C@H]2C[C@H](O)[C@@H](CO)O2)c(=O)n1 [decitabine] + CCc1ccc(CCOc2ccc(CC3SC(=O)NC3=O)cc2)nc1 [pioglitazone] (first compound 0.1 µM, partner dose 2 µM) | 94.2 |
| CN1CCN(c2ccc3nc(-c4c(N)c5c(F)cccc5[nH]c4=O)[nH]c3c2)CC1 [Dovitinib] + CN(NC(=O)CC(=O)NN(C)C(=S)c1ccccc1)C(=S)c1ccccc1 [STA4783] (first compound 0.1 µM, partner dose 0.006 µM) | 124 |
| Nc1ccn([C@@H]2O[C@H](CO)[C@@H](O)C2(F)F)c(=O)n1 [gemcitabine] + O=c1cc(-c2cccc3c2Sc2ccccc2S3)oc(N2CCOCC2)c1 [KU55933] (first compound 0.0004 µM, partner dose 1 µM) | 130 |
| CCCS(=O)(=O)Nc1ccc(F)c(C(=O)c2c[nH]c3ncc(Cl)cc23)c1F + COc1cc(Nc2ncc(F)c(Nc3ccc4c(n3)NC(=O)C(C)(C)O4)n2)cc(OC)c1OC [Tamatinib] (first compound 0.08 µM, partner dose 0.4 µM) | 95 |
| Cn1c(=O)n(-c2ccc(C(C)(C)C#N)cc2)c2c3cc(-c4cnc5ccccc5c4)ccc3ncc21 + Oc1cc(-c2nc(-c3ccccc3)[nH]c2-c2ccncc2)ccc1Cl [L779450] (first compound 0.004 µM, partner dose 0.2 µM) | 116 |
| CN1CCN(c2ccc3nc(-c4c(N)c5c(F)cccc5[nH]c4=O)[nH]c3c2)CC1 [Dovitinib] + COc1ccc(COc2ccc(Cc3cnc(N)nc3N)cc2OC)cc1 [GW2580] (first compound 0.1 µM, partner dose 1 µM) | 78.8 |
| C=C(c1ccc(C(=O)O)cc1)c1cc2c(cc1C)C(C)(C)CCC2(C)C [Bexarotene] + CCc1ccc(CCOc2ccc(CC3SC(=O)NC3=O)cc2)nc1 [pioglitazone] (first compound 2 µM, partner dose 2 µM) | 79.8 |
| Cc1cc(Nc2cc(N3CCN(C)CC3)nc(/C=C/c3ccccc3)n2)n[nH]1 + CC(C)CCN1c2nc(Nc3cc(F)c(O)c(F)c3)ncc2N(C)C(=O)C1C [BID1870] (first compound 0.04 µM, partner dose 0.2 µM) | 89.3 |
| CN1CCN(c2ccc3nc(-c4c(N)c5c(F)cccc5[nH]c4=O)[nH]c3c2)CC1 [Dovitinib] + CN(C)S(=O)(=O)c1ccc2c(c1)/C(=C/c1cc3c([nH]1)CCCC3)C(=O)N2 [SU6656] (first compound 0.1 µM, partner dose 0.4 µM) | 73.4 |
